Experimental data reported in the supplement of paper PMC8288183.
Some of the results follow. Most values come without repeats; read them as rough.

Molecular target: T1, NSUN6 (UniProt Q8TEA1)
T1 sequence: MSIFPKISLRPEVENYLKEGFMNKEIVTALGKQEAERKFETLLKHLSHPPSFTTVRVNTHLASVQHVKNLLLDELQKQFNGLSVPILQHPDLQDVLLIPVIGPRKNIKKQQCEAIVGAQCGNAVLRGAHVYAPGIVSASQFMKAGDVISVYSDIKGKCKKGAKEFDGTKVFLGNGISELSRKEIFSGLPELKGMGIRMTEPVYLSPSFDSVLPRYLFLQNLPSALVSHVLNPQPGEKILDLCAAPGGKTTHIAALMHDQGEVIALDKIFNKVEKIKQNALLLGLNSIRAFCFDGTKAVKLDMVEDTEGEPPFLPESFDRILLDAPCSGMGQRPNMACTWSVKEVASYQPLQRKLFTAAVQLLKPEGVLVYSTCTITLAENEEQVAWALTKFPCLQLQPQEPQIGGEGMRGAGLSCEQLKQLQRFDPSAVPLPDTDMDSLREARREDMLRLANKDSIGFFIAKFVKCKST
Assay: m5C methylation level at the target C (C/(C+U) bisulfite reads) (fraction); higher = more methylation by NSUN6; extreme values may be limits of the assay
Details: HEK293T (wild-type)
Method: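 High-throughput mutagenesis reporter. About 140 bp oligo-pool variants of four natural Type II m5C substrates (substrate #1 chr15:91425541; #2 RAB15 3'UTR chr14:65413377; #3 SULT2A1 5'UTR chr19:48389569; #4 NAAA CDS chr4:76857361) were cloned as 3'UTR elements of psiCHECK-2 luciferase and transfected into wild-type HEK293T cells. Total RNA was taken 48 h later and m5C level was measured by targeted bisulfite sequencing as C/(C+U) reads at the m5C site (one library).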

[1] = parent substrate: substrate #1 (main figure)

Sequence	m5C methylation level at the target C [1]	m5C methylation level at the target C (parent substrate: substrate #2)	m5C methylation level at the target C (parent substrate: substrate #3)	m5C methylation level at the target C (parent substrate: substrate #4)
UCGGAG	0.00109	0.000547	0.00199	0.000988
CCGAGG	0	0	0	0
CCGGGA	0.00183	0	0.00133	0.00375
GCGCAA	0.000666	0.00104	0.0038	0.0125
CCCGUU	0	0.0046	0	0
ACCCGA	0.00219	0.000708	0.000416	0.000855
UCCUAA	0.000488	0.00378	0.00128	0
UCAGGG	0	0	0.00172	0
ACCCGU	0.00219	0	0	0.00207
UCACCA	0.000927	0	0.00116	0.0108
GCUGGC	0.00258	0.00363	0.000364	0.00252
UCCAGU	0	0.00122	0.00132	0.000985
GCUGGA	0	0.00185	0.000962	0.0014
UCGAUU	0.00116	0	0.0014	0.00197
UCCUAG	0	0.00178	0.000658	0.00491
CCCAGC	0.00305	0	0	0.00061
GCCGCC	0.0024	0.00225	0.000426	0.00497
ACCAGG	0.00143	0.000866	0.00176	0.00398
ACUCGA	0.0254	0.00173	0.0384	0.00725
CCUGUC	0.000378	0	0.00176	0.00101

Sequence	m5C methylation level at the target C [1]	m5C methylation level at the target C (parent substrate: substrate #2)	m5C methylation level at the target C (parent substrate: substrate #3)	m5C methylation level at the target C (parent substrate: substrate #4)
UCUAGG	0.000624	0	0.0016	0.000686
GCGCUC	0	0.00279	0.00227	0.0112
GCGGGC	0.0011	0	0.00127	0.000443
CCGCUG	0.00216	0.00245	0.00415	0.000412
CCGAGC	0.00708	0.00272	0.00225	0
ACGUGC	0.0095	0	0.000528	0.000763
ACUAUA	0.0013	0.000576	0.000576	0.000634
ACUGGA	0.00129	0	0.00113	0.00247
ACGGCC	0.00176	0.000805	0	0
ACACCU	0	0.00212	0	0
CCAAAU	0	0	0.00385	0.000636
GCCAGU	0.002	0.00123	0.000395	0
GCCAAC	0.000887	0.00199	0	0.000894
ACAGAA	0.00194	0	0.00171	0
ACGCUA	0.00489	0.0015	0.00131	0.00122
GCUGAU	0.00134	0.000962	0.00129	0.000949
UCAAGA	0	0.00785	0	0
CCUAUC	0	0.00146	0.00151	0
GCGGGU	0.00158	0	0.00133	0
CCAACG	0	0.000925	0.00105	0

Single values from the list:
ACGUGC – m5C methylation level at the target C (parent substrate: substrate #4): 0.000763
CCGAGG – m5C methylation level at the target C [1]: 0
